The results in this text go back to US20060218667A1 (published 2006).

Sequences of proteins named here, by UniProt entry; tags and fusion partners are left off. Residues count along the entry.
UniProt P00761, 9-231 limits assumed: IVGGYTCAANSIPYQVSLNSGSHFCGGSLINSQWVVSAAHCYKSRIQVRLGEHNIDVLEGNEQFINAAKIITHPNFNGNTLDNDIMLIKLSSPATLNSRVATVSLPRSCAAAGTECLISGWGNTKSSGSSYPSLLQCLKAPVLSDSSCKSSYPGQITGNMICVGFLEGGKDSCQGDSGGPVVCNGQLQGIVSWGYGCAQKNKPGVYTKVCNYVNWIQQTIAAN

B1: Trasylol aprotinin (bovine lung-derived aprotinin, Bayer) (other)
chain: MGKMASLFATFLVVLVSLSLASESSARPDFCLEPPYTGPCKARIIRYFYNAKAGLCQT
modifications: Met 52 partly oxidized (5.7% by RP-HPLC); also minor C-terminally truncated (-Ala, -Gly-Ala) and derivatized species
B2: plant-produced recombinant bovine aprotinin (r-Aprotinin), product of pLSB2602 (other)
chain: B1 chain
modifications: Met 52 partly oxidized (12.4% oxidized r-Aprotinin by RP-HPLC in lot 040413LYF); disulfides Cys5-Cys55, Cys14-Cys38, Cys30-Cys51
B3: r-Aprotinin-M (aprotinin variant with Met 52 deleted) (other)
chain: MGKMASLFATFLVVLVSLSLASESSARPDFCLEPPYTGPCKARIIRYFYNAAGLCQT

For this test, the target named is porcine trypsin (porcine, UniProt P00761 9-231). The test can be described thus: cell-based or functional assay.
For B1, the “KIU/mg Protein (specific activity)” value stood at 7120 KIU/mg protein.
In the case of B2 it was 7200 KIU/mg protein; in that of B3, 6850 KIU/mg protein.
